Data taken from patent US8637484B2, “Modulation of growth hormone receptor expression and insulin-like growth factor expression” (Antisense Therapeutic Limited, priority 2003, dated 2014).
Some entries share one result that the patent states for a list of compounds. In the oligonucleotide strings, read from the 5' end, every base follows the letter of its sugar. An asterisk marks phosphorothioate; unmarked linkages are phosphodiester. Other units and linkages are bracketed, terminal groups are in braces. A string of capitals states the bases alone. e = 2'-O-(2-methoxyethyl) (MOE); [5mC] = 5-methylcytosine; d = 2'-deoxy (DNA)

Tested on: mouse growth hormone receptor mRNA
Experiment: Inhibition of mouse growth hormone receptor mRNA levels in b.END cells, quantitative real-time PCR
Type: cell-based
Design: concentration or dose not given beside the values
Settings: averages from three experiments
Experimental: The mouse brain endothelial cell line b.END was obtained from Dr. Werner Risau at the Max Plank Instititute (Bad Nauheim, Germany). b.END cells were routinely cultured in DMEM, high glucose (Gibco/Life Technologies, Gaithersburg, Md.) supplemented with 10% fetal calf serum (Gibco/Life Technologies, Gaithersburg, Md.). Cells were routinely passaged by trypsinization and dilution when they reached 90% confluence. Cells were seeded into 96-well plates (Falcon-Primaria #3872) at a density of 3000 cells/well for use in RT-PCR analysis.
When cells reached 65-75% confluency, they were treated with oligonucleotide. For cells grown in 96-well plates, wells were washed once with 100 μL OPTI-MEM™-1 reduced-serum medium (Invitrogen Corporation, Carlsbad, Calif.) and then treated with 130 μL of OPTI-MEM™-1 containing 3.75 μg/mL LIPOFECTIN™ (Invitrogen Corporation, Carlsbad, Calif.) and the desired concentration of oligonucleotide. Cells are treated and data are obtained in triplicate. After 4-7 hours of treatment at 37° C., the medium was replaced with fresh medium. Cells were harvested 16-24 hours after oligonucleotide treatment.
Total RNA was isolated using an RNEASY 96™ kit and buffers purchased from Qiagen Inc. (Valencia, Calif.) following the manufacturer's recommended procedures. Briefly, for cells grown on 96-well plates, growth medium was removed from the cells and each well was washed with 200 μL cold PBS. 150 μL Buffer RLT was added to each well and the plate vigorously agitated for 20 seconds. 150 μL of 70% ethanol was then added to each well and the contents mixed by pipetting three times up and down. The samples were then transferred to the RNEASY 96™ well plate attached to a QIAVAC™ manifold fitted with a waste collection tray and attached to a vacuum source. Vacuum was applied for 1 minute. 500 μL of Buffer RW1 was added to each well of the RNEASY 96™ plate and incubated for 15 minutes and the vacuum was again applied for 1 minute. An additional 500 μL of Buffer RW1 was added to each well of the RNEASY 96™ plate and the vacuum was applied for 2 minutes. 1 mL of Buffer RPE was then added to each well of the RNEASY 96™ plate and the vacuum applied for a period of 90 seconds. The Buffer RPE wash was then repeated and the vacuum was applied for an additional 3 minutes. The plate was then removed from the QIAVAC™ manifold and blotted dry on paper towels. The plate was then re-attached to the QIAVAC™ manifold fitted with a collection tube rack containing 1.2 mL collection tubes. RNA was then eluted by pipetting 140 μL of RNAse free water into each well, incubating 1 minute, and then applying the vacuum for 3 minutes.
Quantitation of growth hormone receptor mRNA levels was accomplished by real-time quantitative PCR using the ABI PRISM™ 7600, 7700, or 7900 Sequence Detection System (PE-Applied Biosystems, Foster City, Calif.) according to manufacturer's instructions. This is a closed-tube, non-gel-based, fluorescence detection system which allows high-throughput quantitation of polymerase chain reaction (PCR) products in real-time. As opposed to standard PCR in which amplification products are quantitated after the PCR is completed, products in real-time quantitative PCR are quantitated as they accumulate. This is accomplished by including in the PCR reaction an oligonucleotide probe that anneals specifically between the forward and reverse PCR primers, and contains two fluorescent dyes. A reporter dye (e.g., FAM or JOE, obtained from either PE-Applied Biosystems, Foster City, Calif., Operon Technologies Inc., Alameda, Calif. or Integrated DNA Technologies Inc., Coralville, Iowa) is attached to the 5′ end of the probe and a quencher dye (e.g., TAMRA, obtained from either PE-Applied Biosystems, Foster City, Calif., Operon Technologies Inc., Alameda, Calif. or Integrated DNA Technologies Inc., Coralville, Iowa) is attached to the 3′ end of the probe. […]

Substance	% INHIB
agttgaagtaacagctgttt (eA*eG*eT*eT*eG*dA*dA*dG*dT*dA*dA*d[5mC]*dA*dG*d[5mC]*eT*eG*eT*eT*eT; antisense) [ISIS 227454]	at least 50%
tgtcgcttacttgggcataa (eT*eG*eT*e[5mC]*eG*d[5mC]*dT*dT*dA*d[5mC]*dT*dT*dG*dG*dG*e[5mC]*eA*eT*eA*eA; antisense) [ISIS 227474]	at least 50%
tttttggcatctgactcaca (eT*eT*eT*eT*eT*dG*dG*d[5mC]*dA*dT*d[5mC]*dT*dG*dA*d[5mC]*eT*e[5mC]*eA*e[5mC]*eA; antisense) [ISIS 227478]	at least 50%
tcccaacacagatttaaaac (eT*e[5mC]*e[5mC]*e[5mC]*eA*dA*d[5mC]*dA*d[5mC]*dA*dG*dA*dT*dT*dT*eA*eA*eA*eA*e[5mC]; antisense) [ISIS 227493]	at least 50%
aagtcaatgtttgccagtga (eA*eA*eG*eT*e[5mC]*dA*dA*dT*dG*dT*dT*dT*dG*d[5mC]*d[5mC]*eA*eG*eT*eG*eA; antisense) [ISIS 227473]	at least 50%
taggaaaggctactgcatga (eT*eA*eG*eG*eA*dA*dA*dG*dG*d[5mC]*dT*dA*d[5mC]*dT*dG*e[5mC]*eA*eT*eG*eA; antisense) [ISIS 227491]	at least 50%
caaaagccacctgattgttt (e[5mC]*eA*eA*eA*eA*dG*d[5mC]*d[5mC]*dA*d[5mC]*d[5mC]*dT*dG*dA*dT*eT*eG*eT*eT*eT; antisense) [ISIS 227494]	at least 50%
ctccaaggataccagctgat (e[5mC]*eT*e[5mC]*e[5mC]*eA*dA*dG*dG*dA*dT*dA*d[5mC]*d[5mC]*dA*dG*e[5mC]*eT*eG*eA*eT; antisense) [ISIS 227470]	at least 50%
